The source of these data is the supplement of paper PMC12067093, “Discovery and optimisation of a covalent ligand for TRIM25 and its application to targeted protein ubiquitination” (Chemical Science, 2025).

Protein sequences, listed by entry. Tags and fused reporters are not part of them. Lines headed by an entry give the natural chain unless they say otherwise; changes in a name come on top.
UniProt P48553, whole entry, looked up: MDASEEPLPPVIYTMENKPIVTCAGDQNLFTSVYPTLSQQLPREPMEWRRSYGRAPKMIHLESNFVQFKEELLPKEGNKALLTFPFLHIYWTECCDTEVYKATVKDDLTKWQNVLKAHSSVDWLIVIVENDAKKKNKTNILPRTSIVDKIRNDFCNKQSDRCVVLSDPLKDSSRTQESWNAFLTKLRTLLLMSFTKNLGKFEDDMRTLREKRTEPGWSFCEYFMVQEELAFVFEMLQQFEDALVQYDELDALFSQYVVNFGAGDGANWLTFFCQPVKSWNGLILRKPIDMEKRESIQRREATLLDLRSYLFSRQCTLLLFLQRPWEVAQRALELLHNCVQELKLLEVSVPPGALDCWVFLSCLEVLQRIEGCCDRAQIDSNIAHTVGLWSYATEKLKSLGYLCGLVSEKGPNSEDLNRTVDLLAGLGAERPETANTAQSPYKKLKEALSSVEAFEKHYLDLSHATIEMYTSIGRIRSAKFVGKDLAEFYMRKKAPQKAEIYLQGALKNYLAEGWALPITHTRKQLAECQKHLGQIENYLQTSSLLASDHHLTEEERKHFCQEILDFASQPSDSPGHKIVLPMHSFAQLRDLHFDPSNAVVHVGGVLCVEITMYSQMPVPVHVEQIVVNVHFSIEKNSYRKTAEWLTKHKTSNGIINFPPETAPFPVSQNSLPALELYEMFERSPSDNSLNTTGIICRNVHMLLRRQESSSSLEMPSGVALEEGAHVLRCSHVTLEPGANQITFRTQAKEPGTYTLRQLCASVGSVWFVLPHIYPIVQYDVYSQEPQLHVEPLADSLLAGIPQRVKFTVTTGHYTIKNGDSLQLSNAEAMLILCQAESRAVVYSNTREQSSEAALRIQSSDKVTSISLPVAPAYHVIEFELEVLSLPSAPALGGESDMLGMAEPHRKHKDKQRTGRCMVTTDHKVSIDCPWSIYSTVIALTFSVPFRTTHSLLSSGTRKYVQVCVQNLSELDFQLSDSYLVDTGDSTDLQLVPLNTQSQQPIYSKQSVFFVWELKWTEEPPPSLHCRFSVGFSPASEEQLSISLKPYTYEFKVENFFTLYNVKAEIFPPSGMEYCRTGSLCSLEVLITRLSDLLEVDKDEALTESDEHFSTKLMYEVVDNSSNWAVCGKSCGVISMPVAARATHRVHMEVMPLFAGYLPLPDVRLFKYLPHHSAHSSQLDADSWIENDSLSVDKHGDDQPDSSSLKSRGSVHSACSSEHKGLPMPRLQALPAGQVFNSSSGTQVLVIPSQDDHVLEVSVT
UniProt Q14258, whole entry, looked up: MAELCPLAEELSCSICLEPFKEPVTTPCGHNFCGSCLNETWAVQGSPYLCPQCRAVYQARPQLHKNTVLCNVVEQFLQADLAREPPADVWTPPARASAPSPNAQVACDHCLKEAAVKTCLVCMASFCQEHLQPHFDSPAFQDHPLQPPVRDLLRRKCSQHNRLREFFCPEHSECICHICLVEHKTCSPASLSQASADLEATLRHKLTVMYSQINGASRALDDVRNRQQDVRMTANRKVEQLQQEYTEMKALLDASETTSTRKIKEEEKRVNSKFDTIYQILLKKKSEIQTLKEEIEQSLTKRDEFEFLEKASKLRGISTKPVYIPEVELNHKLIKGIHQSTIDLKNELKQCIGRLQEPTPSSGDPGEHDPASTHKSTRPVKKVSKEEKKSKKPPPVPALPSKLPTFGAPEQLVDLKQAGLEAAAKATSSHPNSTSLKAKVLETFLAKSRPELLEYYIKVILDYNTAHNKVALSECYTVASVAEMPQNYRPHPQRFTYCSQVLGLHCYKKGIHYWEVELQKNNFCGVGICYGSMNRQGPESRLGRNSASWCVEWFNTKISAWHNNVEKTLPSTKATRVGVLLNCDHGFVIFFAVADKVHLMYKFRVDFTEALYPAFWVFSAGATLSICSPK
UniProt Q9UPN9: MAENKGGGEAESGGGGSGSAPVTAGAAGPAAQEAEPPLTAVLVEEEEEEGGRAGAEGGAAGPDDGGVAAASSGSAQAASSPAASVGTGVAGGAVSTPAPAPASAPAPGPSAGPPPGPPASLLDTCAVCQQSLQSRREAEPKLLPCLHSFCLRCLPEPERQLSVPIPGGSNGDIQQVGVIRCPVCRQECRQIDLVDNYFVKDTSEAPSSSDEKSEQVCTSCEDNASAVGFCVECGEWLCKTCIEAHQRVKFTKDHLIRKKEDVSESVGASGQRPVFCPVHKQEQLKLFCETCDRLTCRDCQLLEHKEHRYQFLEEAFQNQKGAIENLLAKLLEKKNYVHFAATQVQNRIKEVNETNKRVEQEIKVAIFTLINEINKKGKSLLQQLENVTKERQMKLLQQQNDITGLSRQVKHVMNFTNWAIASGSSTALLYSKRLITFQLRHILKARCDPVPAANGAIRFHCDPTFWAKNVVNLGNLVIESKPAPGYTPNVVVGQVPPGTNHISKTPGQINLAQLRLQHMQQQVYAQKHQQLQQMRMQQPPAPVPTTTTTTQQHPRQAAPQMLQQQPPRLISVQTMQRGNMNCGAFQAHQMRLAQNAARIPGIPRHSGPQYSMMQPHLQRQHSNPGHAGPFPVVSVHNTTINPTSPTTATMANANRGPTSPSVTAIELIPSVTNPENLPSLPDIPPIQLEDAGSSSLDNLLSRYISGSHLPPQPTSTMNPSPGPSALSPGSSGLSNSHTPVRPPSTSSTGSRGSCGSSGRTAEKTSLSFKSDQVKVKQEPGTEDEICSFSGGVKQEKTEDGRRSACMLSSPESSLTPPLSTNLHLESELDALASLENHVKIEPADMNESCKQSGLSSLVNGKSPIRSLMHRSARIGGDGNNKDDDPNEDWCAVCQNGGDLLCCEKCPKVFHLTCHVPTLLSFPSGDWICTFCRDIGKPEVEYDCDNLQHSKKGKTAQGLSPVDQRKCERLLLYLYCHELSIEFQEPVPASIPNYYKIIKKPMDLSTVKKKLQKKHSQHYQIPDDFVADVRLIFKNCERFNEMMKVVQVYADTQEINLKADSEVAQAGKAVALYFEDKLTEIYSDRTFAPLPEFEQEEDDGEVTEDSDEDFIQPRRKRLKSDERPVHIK
UniProt Q12933: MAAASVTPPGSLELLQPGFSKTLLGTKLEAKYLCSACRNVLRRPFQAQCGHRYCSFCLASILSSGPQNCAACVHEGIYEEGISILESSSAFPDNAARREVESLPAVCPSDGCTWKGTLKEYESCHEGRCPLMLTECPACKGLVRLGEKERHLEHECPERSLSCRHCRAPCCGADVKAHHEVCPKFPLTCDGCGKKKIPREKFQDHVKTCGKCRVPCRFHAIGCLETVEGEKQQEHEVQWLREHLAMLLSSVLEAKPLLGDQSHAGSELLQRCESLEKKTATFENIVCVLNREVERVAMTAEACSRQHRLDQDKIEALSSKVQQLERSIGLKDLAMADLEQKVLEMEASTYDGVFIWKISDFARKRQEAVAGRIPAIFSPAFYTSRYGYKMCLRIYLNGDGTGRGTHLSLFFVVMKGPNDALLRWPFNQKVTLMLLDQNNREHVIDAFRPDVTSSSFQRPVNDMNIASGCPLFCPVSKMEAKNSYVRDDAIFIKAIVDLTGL
UniProt Q9UL33, whole entry, looked up: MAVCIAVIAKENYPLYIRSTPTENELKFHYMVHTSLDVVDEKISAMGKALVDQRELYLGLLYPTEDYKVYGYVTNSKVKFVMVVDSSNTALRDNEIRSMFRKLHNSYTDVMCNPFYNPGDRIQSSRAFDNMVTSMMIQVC
UniProt Q12931: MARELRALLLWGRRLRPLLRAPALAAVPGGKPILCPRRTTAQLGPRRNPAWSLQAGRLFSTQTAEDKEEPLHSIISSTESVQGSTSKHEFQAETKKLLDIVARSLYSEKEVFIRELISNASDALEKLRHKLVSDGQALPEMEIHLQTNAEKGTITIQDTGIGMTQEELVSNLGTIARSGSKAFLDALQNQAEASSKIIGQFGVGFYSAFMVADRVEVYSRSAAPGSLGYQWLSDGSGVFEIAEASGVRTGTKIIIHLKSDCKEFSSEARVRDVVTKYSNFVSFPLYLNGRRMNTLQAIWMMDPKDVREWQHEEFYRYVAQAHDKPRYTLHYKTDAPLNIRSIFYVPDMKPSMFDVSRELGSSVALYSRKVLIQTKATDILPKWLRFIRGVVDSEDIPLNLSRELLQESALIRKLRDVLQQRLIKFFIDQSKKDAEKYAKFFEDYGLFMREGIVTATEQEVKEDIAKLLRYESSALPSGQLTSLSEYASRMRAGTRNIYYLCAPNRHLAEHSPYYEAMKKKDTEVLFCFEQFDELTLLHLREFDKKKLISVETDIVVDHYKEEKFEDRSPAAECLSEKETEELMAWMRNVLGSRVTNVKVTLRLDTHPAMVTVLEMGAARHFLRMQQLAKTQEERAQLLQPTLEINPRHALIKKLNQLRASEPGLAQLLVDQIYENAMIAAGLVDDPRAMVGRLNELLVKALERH
UniProt Q9NQ86: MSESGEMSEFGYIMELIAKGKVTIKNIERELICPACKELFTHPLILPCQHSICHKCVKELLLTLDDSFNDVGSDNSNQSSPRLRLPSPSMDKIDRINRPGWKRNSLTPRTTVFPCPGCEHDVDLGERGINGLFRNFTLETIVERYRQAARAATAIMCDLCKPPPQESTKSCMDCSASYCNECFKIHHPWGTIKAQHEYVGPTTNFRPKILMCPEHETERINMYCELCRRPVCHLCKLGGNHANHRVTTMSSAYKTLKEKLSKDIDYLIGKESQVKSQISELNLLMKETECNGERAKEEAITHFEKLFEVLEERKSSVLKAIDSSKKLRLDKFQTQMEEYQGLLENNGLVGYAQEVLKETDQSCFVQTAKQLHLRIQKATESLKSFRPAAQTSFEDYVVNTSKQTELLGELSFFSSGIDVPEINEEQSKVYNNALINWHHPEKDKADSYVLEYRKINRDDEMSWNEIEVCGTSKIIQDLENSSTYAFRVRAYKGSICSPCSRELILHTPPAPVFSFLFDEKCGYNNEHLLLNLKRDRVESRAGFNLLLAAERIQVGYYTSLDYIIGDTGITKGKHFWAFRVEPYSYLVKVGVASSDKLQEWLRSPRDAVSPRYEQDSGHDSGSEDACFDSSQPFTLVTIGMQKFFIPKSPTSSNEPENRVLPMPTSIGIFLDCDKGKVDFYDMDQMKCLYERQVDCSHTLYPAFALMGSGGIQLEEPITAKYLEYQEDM
UniProt Q13263: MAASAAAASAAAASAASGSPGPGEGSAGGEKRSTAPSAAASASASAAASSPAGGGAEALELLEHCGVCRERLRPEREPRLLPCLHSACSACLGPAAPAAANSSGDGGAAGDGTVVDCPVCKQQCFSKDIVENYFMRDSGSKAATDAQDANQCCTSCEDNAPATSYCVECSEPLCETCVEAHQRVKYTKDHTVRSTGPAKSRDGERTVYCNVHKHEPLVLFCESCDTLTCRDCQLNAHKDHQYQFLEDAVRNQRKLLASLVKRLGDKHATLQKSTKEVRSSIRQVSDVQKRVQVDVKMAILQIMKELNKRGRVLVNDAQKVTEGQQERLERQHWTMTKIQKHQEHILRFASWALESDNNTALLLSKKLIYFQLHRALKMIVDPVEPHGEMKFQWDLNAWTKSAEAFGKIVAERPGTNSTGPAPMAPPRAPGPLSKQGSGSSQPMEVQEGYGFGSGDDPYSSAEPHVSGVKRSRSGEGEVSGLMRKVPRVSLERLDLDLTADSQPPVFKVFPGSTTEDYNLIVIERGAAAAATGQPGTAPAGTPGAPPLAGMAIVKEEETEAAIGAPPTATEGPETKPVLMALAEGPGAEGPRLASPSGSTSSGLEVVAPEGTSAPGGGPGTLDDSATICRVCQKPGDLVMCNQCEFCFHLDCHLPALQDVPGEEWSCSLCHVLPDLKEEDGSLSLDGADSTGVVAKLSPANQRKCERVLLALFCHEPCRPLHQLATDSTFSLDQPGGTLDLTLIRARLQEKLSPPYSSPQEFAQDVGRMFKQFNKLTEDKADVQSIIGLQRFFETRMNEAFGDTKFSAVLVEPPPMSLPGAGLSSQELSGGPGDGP
UniProt Q9Y4K3: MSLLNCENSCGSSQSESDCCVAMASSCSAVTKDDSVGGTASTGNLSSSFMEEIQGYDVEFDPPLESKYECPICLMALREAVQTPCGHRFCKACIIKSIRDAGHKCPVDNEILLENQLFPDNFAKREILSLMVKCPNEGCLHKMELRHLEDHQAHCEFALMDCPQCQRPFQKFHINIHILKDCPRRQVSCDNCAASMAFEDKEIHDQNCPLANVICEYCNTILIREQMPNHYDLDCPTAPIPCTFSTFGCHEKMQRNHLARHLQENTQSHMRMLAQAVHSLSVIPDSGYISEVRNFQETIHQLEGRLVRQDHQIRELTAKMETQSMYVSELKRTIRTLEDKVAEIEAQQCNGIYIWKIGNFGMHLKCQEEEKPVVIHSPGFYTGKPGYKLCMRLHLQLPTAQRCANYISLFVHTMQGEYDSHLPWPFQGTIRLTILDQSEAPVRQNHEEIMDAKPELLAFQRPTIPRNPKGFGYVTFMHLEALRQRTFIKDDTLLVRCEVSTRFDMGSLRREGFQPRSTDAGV

This is one part of the list.

Compound in the test: CC1Cc2ccccc2N1C(=O)C1CCCN(C1)C(=O)CCl (mixture of isomers) [TRIM25 ligand 11 (diastereomer mixture)]
Nature of the test: probe-labelled cysteine peptide fold change vs DMSO (competition) (log2 fold change); higher = less target engagement (more negative = stronger competition). To be noted: THP-1, incubation time: 4 h.
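Also: competitive chemoproteomic profiling in live THP-1 cells with an iodoacetamide desthiobiotin (IA-DTB) probe, comparing probe-labelled peptide intensities in compound-treated cells against DMSO-treated controls.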

As to “TRAPPC10_P48553_916_CMVTTDHK (UniProt P48553)”, the “probe-labelled cysteine peptide fold change” value reads like this: (10 µM) -0.0367; (50 µM) -0.0966.

Regarding “TRIM26_Q12899_36_DPVTIDCGHVFCR (UniProt Q12899)”, the “probe-labelled cysteine peptide fold change” value runs as follows: (10 µM) 0.267; (50 µM) 0.166.

On to “TRIM25_Q14258_176_LREFFCPEHSECICHICLVEHK (UniProt Q14258)”, for which the “probe-labelled cysteine peptide fold change” value is -0.0696 (10 µM) and 0.102 (50 µM).

As to “TRAPPC8_Q9Y2L5_1074_HTAIICTSR (UniProt Q9Y2L5)”, the “probe-labelled cysteine peptide fold change” value (10 µM) was determined as 0.0667 and the “probe-labelled cysteine peptide fold change” value (50 µM) was 0.334.

For the target “TRIM33_Q9UPN9_153_CLPEPER (UniProt Q9UPN9)”, the “probe-labelled cysteine peptide fold change” value is -0.0672 (10 µM) and 0.0362 (50 µM).

As for “TRAF2_Q12933_223_FHAIGCLETVEGEK (UniProt Q12933)”, the “probe-labelled cysteine peptide fold change” value (10 µM) is -0.0116 and the “probe-labelled cysteine peptide fold change” value (50 µM) worked out at 0.0184.

As to “TPM3_P06753-2_233_EEHLCTQR (UniProt P06753)”, the “probe-labelled cysteine peptide fold change” value was 0.304 (10 µM) and -0.142 (50 µM).

In the case of “TRAPPC13_A5PLN9-4_326_ITNCSSER (UniProt A5PLN9)”, the “probe-labelled cysteine peptide fold change” value runs as follows: (10 µM) 0.111; (50 µM) -0.11.

As to “TPRKB_Q9Y3C4_167_LSSQEESIGTLLDAIICR (UniProt Q9Y3C4)”, the “probe-labelled cysteine peptide fold change” value reads like this: (10 µM) -0.0232; (50 µM) 0.141.

For “TRIM38_O00635_188_NLQCFLHEEEK (UniProt O00635)”, the “probe-labelled cysteine peptide fold change” value runs as follows: (10 µM) 0.000519; (50 µM) -0.11.

Turning to “TRAPPC2L_Q9UL33_112_LHNSYTDVMCNPFYNPGDR (UniProt Q9UL33)”, the “probe-labelled cysteine peptide fold change” value runs as follows: (10 µM) 0.174; (50 µM) -0.235.

For the target “TRERF1_Q96PN7_1065_QKPGGTQSGYCSVK (UniProt Q96PN7)”, the “probe-labelled cysteine peptide fold change” value reads like this: (10 µM) -0.127; (50 µM) -0.11.

With “TRANK1_O15050_2361_THLCFIR (UniProt O15050)”, the “probe-labelled cysteine peptide fold change” value by setting is: (10 µM) 0.00759; (50 µM) 0.134.

For “TRIOBP_Q9H2D6_2280_SSCELEVLLR (UniProt Q9H2D6)”, the “probe-labelled cysteine peptide fold change” value runs as follows: (10 µM) -0.0593; (50 µM) -0.177.

As for “TRAPPC9_Q96Q05_317_NCLSPEDIIDK (UniProt Q96Q05)”, the “probe-labelled cysteine peptide fold change” value reads like this: (10 µM) 0.0206; (50 µM) 0.00656.

For “TRIM33_Q9UPN9_447_CDPVPAANGAIR (UniProt Q9UPN9)”, the “probe-labelled cysteine peptide fold change” value is -0.0213 (10 µM) and -0.0021 (50 µM).

On to “TRAP1_Q12931_573_SPAAECLSEKETEELMAWMR (UniProt Q12931)”, for which the “probe-labelled cysteine peptide fold change” value (10 µM) was -0.429 and the “probe-labelled cysteine peptide fold change” value (50 µM) is -0.376.

“TRIM36_Q9NQ86_48_ELFTHPLILPCQHSICHK (UniProt Q9NQ86)”: the “probe-labelled cysteine peptide fold change” value (10 µM) turned out to be 0.0853 and the “probe-labelled cysteine peptide fold change” value (50 µM) is -0.0459.

As for “TRIM33_Q9UPN9_849_IEPADMNESCK (UniProt Q9UPN9)”, the “probe-labelled cysteine peptide fold change” value (10 µM) is -0.0405 and the “probe-labelled cysteine peptide fold change” value (50 µM) was -0.216.

As to “TPP2_P29144_342_ICEVINEAVWK (UniProt P29144)”, the “probe-labelled cysteine peptide fold change” value by setting is: (10 µM) 0.0161; (50 µM) 0.0391.

Regarding “TRIM28_Q13263_717_VLLALFCHEPCR (UniProt Q13263)”, the “probe-labelled cysteine peptide fold change” value is, setting by setting: (10 µM) 0.073; (50 µM) 0.00363.

“TRIM24_O15164_127+134_CPVCSQECAER (UniProt O15164)”: the “probe-labelled cysteine peptide fold change” value (10 µM) came to 0.103 and the “probe-labelled cysteine peptide fold change” value (50 µM) was 0.0149.

For the target “TRMT112_Q9UI30_100_TMHHLLLEVEVIEGTLQCPESGR (UniProt Q9UI30)”, the “probe-labelled cysteine peptide fold change” value by setting is: (10 µM) -0.0301; (50 µM) 0.0326.

In the case of “TRIM32_Q13049_509_YSCLCSAVRPK (UniProt Q13049)”, the “probe-labelled cysteine peptide fold change” value is -0.0535 (10 µM) and 0.0751 (50 µM).

Take “TRIM28_Q13263_229_HEPLVLFCESCDTLTCR (UniProt Q13263)”: the “probe-labelled cysteine peptide fold change” value reads like this: (10 µM) -0.075; (50 µM) 0.0103.

For “TRAPPC10_P48553_403_SLGYLCGLVSEK (UniProt P48553)”, the “probe-labelled cysteine peptide fold change” value is, setting by setting: (10 µM) 0.168; (50 µM) 0.0086.

Take “TRIM36_Q9NQ86_160_AATAIMCDLCKPPPQESTK (UniProt Q9NQ86)”: the “probe-labelled cysteine peptide fold change” value was -0.4 (10 µM) and -0.313 (50 µM).

Take “TRIM33_Q9UPN9_276_EDVSESVGASGQRPVFCPVHK (UniProt Q9UPN9)”: the “probe-labelled cysteine peptide fold change” value runs as follows: (10 µM) 0.125; (50 µM) 0.0598.

On to “TRIP10_Q15642_99_VCLELTK (UniProt Q15642)”, for which the “probe-labelled cysteine peptide fold change” value was -0.107 (10 µM) and -0.0116 (50 µM).

Take “TRAF6_Q9Y4K3_134_CPNEGCLHK (UniProt Q9Y4K3)”: the “probe-labelled cysteine peptide fold change” value is, setting by setting: (10 µM) -0.0221; (50 µM) -0.0317.

Take “TRAF6_Q9Y4K3_208_EIHDQNCPLANVICEYCNTILIR (UniProt Q9Y4K3)”: the “probe-labelled cysteine peptide fold change” value was 0.204 (10 µM) and 0.174 (50 µM).

Regarding “TRA2B_P62995_118+119_ANPDPNCCLGVFGLSLYTTER (UniProt P62995)”, the “probe-labelled cysteine peptide fold change” value is, setting by setting: (10 µM) -0.00483; (50 µM) -0.0866.

Turning to “TRABD_Q9H4I3_108_EVQPDVVVVELCQYR (UniProt Q9H4I3)”, the “probe-labelled cysteine peptide fold change” value worked out at 0.0568 (10 µM) and 0.0505 (50 µM).

In the case of “TPRN_Q4KMQ1_536_EAEEEEASCLLGPTLK (UniProt Q4KMQ1)”, the “probe-labelled cysteine peptide fold change” value was 0.175 (10 µM) and -0.274 (50 µM).

Regarding “TPP1_O14773_111_CHSVITQDFLTCWLSIR (UniProt O14773)”, the “probe-labelled cysteine peptide fold change” value runs as follows: (10 µM) -0.0382; (50 µM) 0.279.

For “TRIM4_Q9C037_293_TVCQIPLMK (UniProt Q9C037)”, the “probe-labelled cysteine peptide fold change” value is -0.048 (10 µM) and -0.151 (50 µM).

Consider “TRIM25_Q14258_174+176+179_LREFFCPEHSECICHICLVEHK (UniProt Q14258)”, for which the “probe-labelled cysteine peptide fold change” value by setting is: (10 µM) -0.0904; (50 µM) -0.178.

Turning to “TRAPPC2L_Q9UL33_112_KLHNSYTDVMCNPFYNPGDR (UniProt Q9UL33)”, the “probe-labelled cysteine peptide fold change” value came out at 0.129 (10 µM) and 0.232 (50 µM).

Regarding “TRIP6_Q15654_307_VFHVGCFVCSTCR (UniProt Q15654)”, the “probe-labelled cysteine peptide fold change” value reads like this: (10 µM) 0.0462; (50 µM) 0.0758.

As to “TRIM14_Q14142_20_SELVEGCGWR (UniProt Q14142)”, the “probe-labelled cysteine peptide fold change” value is, setting by setting: (10 µM) -0.0272; (50 µM) 0.0312.

For “TRIM11_Q96F44_236_CQLPALGLLQDIK (UniProt Q96F44)”, the “probe-labelled cysteine peptide fold change” value is -0.0796 (10 µM) and 0.153 (50 µM).

With “TRAF2_Q12933_49_RPFQAQCGHR (UniProt Q12933)”, the “probe-labelled cysteine peptide fold change” value runs as follows: (10 µM) 0.0244; (50 µM) 0.0147.
